# In PubChem BioAssay AID2685 (National Center for Advancing Translational Sciences (NCATS), 2010):
# This is one part of the list. The main result of the screen is listed elsewhere. These columns were measured beside it and carry no call. Most of these compounds were active or inconclusive in the main read-out, so they are no random draw. The note in brackets gives the kind of curve behind each potency; many fits are weak.
# Assay: qHTS Assay for Lipid Storage Modulators in Drosophila S3 Cells;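 for cell number change: cells counted by Cell Tracker Red CMTPX staining in the red channel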
# Settings: BODIPY lipid droplet fluorescence, 18-24 h; for cell number change: measured here: cell count max response, cells fed with added oleic acid
# Method in brief: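 Laser-scanning cytometry quantifies lipid droplet accumulation (500–530 nm total intensity; droplet/cell object ratio) in oleic acid-fed (400 uM added) Drosophila S3 cells treated with a concentration series. 20 uM Triacsin C defined 100% inhibition.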
# [1] = measured here: lipid fluorescence (Fed channel) AC50, cells fed with added oleic acid
# [2] = measured here: cell number channel AC50, cells fed with added oleic acid
Compound,cell number change [%],AC50 [1],AC50 [2]
CCOC(=O)c1c(NC(=O)c2ccco2)sc2c1CCCCC2,16.4,–,–
O=C(CNC1CCCCCC1)c1cccs1,–,"0.00461 µM [rising, full curve, poor fit]",–
COC(=O)C1=C(C)NC(=O)C1(NS(=O)(=O)c1ccc(C)cc1)C(F)(F)F (stereo not given),-17.7,"29.1 µM [falling, single point]","0.651 µM [falling, full curve, poor fit]"
O=C(Nc1ccc(Cl)c(Cl)c1)Nc1cc(S(=O)(=O)N2CCOCC2)ccc1N1CCCC1,8.61,–,–
COc1ccc(S(=O)(=O)N2CCN(c3ccc(F)cc3)CC2)cc1C(=O)N1CCCC1,6.25,–,–
CCn1c(=O)c2cc(C(=O)N(C)c3cc(C)ccc3OC)sc2c2ccccc21,-12.1,"0.651 µM [falling, single point]",–
O=C(O)c1ccc(-n2c(-c3ccccc3)n[nH]c2=S)cc1,–,–,"3.66 µM [falling, single point]"
CC1CN(S(=O)(=O)c2ccc(C(=O)OCc3ccc(C#N)cc3)cc2)CC(C)O1 (stereo not given),-2.81,"2.06 µM [rising, partial curve]",–
Fc1ccc2[nH]c3c(N4CCSCC4)ncnc3c2c1,-1.66,"1.46 µM [rising, partial curve]","1.3 µM [rising, partial curve]"
CCc1nn(C(C)C(=O)N2CCc3ccccc3C2)c(=O)c2cc3occc3n12 (stereo not given),39.7,"1.16 µM [rising, single point]","29.1 µM [rising, single point]"
CCCCN(C(=O)C1=NN(c2ccccc2)C(=O)CC1)c1c(N)n(CC(C)C)c(=O)[nH]c1=O,-2.38,"20.6 µM [rising, single point]",–
C/C(=N\NC(=O)COc1cccc(Br)c1)c1ccc2c(c1)OCCO2,-16.4,"6.51 µM [rising, single point]",–
CNC[C@H](CC1CCCCC1)NC[C@H](CO)NCCc1cccc(C(F)(F)F)c1,8.38,"5.8 µM [rising, partial curve, poor fit]",–
NS(=O)(=O)c1ccc(CCNC(=O)c2cnccn2)cc1,-10.5,–,–
CCn1c(SCC(N)=O)nnc1-c1ccc(S(=O)(=O)N2CCN(C)CC2)cc1,-17.2,"0.00517 µM [falling, full curve, poor fit]",–
CCCOc1ccc(NC(=O)Cc2ccc(S(=O)(=O)N3CCOCC3)s2)cc1OCCC,-25,–,"0.58 µM [falling, single point]"
CC(C)CN1CCC(C(=O)N2CCN(c3ccccc3F)CC2)CC1,-28.1,"13 µM [falling, partial curve]","3.66 µM [falling, full curve, poor fit]"
O=C(c1cccc([N+](=O)[O-])c1)c1cc2ccccc2o1,10.5,"6.51 µM [falling, full curve]",–
O=C1N/C(=N\N=C\c2cccnc2)SC1Cc1ccc(SC(F)F)cc1 (stereo not given),-5.27,–,–
CCCn1nnnc1NCc1ccc(N(CC)CC)cc1,-1.93,–,–
COc1ccc([C@@H]2CC=C(C(=O)O)[C@H](c3cccc(Cl)c3)N2S(=O)(=O)c2ccccc2C)cc1,-18,"29.1 µM [falling, single point]",–
CCOC(=O)Cc1ccc(NC(=O)c2ccc([N+](=O)[O-])cc2)cc1,18,"1.03 µM [rising, single point]",–
COc1ccc2sc(N(CCCN(C)C)C(=O)c3nc4ccccc4s3)nc2c1,9.68,–,–
C#CCOCCOCCOCCNc1nc(N2CCN(C(=O)CCCCCCCCCCNC(=O)[C@H]([C@@H](C)CC)n3cc(CCCCCN)nn3)CC2)nc(N2CCN(C(=O)CCCCCCCCCCNC(=O)[C@@H]([C@H](C)O)n3cc(C)nn3)CC2)n1,-64.2,"25.9 µM [falling, partial curve, poor fit]","29.1 µM [falling, partial curve, poor fit]"
COc1ccc(C(=O)Nc2ccc3cn[nH]c3c2)c(OC)c1,–,"29.1 µM [rising, single point]","0.461 µM [rising, full curve]"
CCOC(=O)N1CCN(C(=O)C2CCN(S(=O)(=O)CC)CC2)CC1,-8.44,"7.31 µM [falling, partial curve]",–
CCc1ccc2[nH]c(O)c(N=NC3=NC(=O)CS3)c2c1,-6.62,"7.31 µM [falling, partial curve, poor fit]",–
CCC1(C(=O)c2ccccc2)C(c2ccc([N+](=O)[O-])cc2)C1(C(=O)OC)C(=O)OC (stereo not given),-7.3,–,"4.11 µM [rising, single point]"
Cc1ccccc1/C=N/NC(=O)CSc1nc2ccccc2o1,31.9,"11.6 µM [rising, partial curve]","9.2 µM [rising, partial curve]"

# An excerpt of these results, tab-delimited.
Compound	cell number change [%]	AC50 [1]	AC50 [2]
CC(C)CN1CCC(C(=O)N2CCN(c3ccccc3F)CC2)CC1	-28.1	13 µM [falling, partial curve]	3.66 µM [falling, full curve, poor fit]
O=C(c1cccc([N+](=O)[O-])c1)c1cc2ccccc2o1	10.5	6.51 µM [falling, full curve]	–
